These are yes or no findings as the source states them, for the method shown. Binding seen in cells or lysates may run through a third protein. Some binding calls cover weakened binding; strength is not graded here.
T1: Caveolin-3 (rat (endogenous in rat bladder)) (UniProt P51638)
T1 sequence: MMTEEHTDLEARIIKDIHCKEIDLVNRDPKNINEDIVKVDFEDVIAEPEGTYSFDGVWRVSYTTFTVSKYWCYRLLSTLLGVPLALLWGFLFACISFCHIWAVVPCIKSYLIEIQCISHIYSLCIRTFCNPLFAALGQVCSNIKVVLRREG


molecular target: T1, Caveolin-3 (rat (endogenous in rat bladder)); test: co-IP; anti-Cav-3 antibody immobilised on magnetic beads, incubated with normal rat bladder lysate for 1 hour; Western blot with anti-HCN1-4 antibodies; nonimmune IgG as negative control

| Binder | binding |
| --- | --- |
| hyperpolarization-activated cyclic nucleotide-gated channel 1 (protein, UniProt Q9JKB0 1-902) MEGGGKPNSASNSRDDGNSVYPSKAPATGPAAADKRLGTPPGGGAAGKEHGNSVCFKVDGGGGEEPAGSFEDAEGPRRQYGFMQRQFTSMLQPGVNKFSLRMFGSQKAVEKEQERVKTAGFWIIHPYSDFRFYWDLIMLIMMVGNLVIIPVGITFFTEQTTTPWIIFNVASDTVFLLDLIMNFRTGTVNEDSSEIILDPKVIKMNYLKSWFVVDFISSIPVDYIFLIVEKGMDSEVYKTARALRIVRFTKILSLLRLLRLSRLIRYIHQWEEIFHMTYDLASAVVRIFNLIGMMLLLCHWDGCLQFLVPLLQDFPPDCWVSLNEMVNDSWGKQYSYALFKAMSHMLCIGYGAQAPVSMSDLWITMLSMIVGATCYAMFVGHATALIQSLDSSRRQYQEKYKQVEQYMSFHKLPADMRQKIHDYYEHRYQGKIFDEENILSELNDPLREEIVNFNCRKLVATMPLFANADPNFVTAMLSKLRFEVFQPGDYIIREGAVGKKMYFIQHGVAGVITKSSKEMKLTDGSYFGEICLLTKGRRTASVRADTYCRLYSLSVDNFNEVLEEYPMMRRAFETVAIDRLDRIGKKNSILLQKFQKDLNTGVFNNQENEILKQIVKHDREMVQAIPPINYPQMTALNCTSSTTTPTSRMRTQSPPVYTATSLSHSNLHSPSPSTQTPQPSAILSPCSYTTAVCSPPIQSPLATRTFHYASPTASQLSLMQQPQPQLQQSQVQQTQPQPQPQPQQPQQQQQQQQQQQQQQQQQQQQQQPQTPGSSTPKNEVHKSTQALHNTNLTREVRPLSASQPSLPHEVSTMISRPHPTVGESLASIPQPMATVHSTGLQAGSRSTVPQRVTLFRQMSSGAIPPNRGVPPAPPPPAAVQRESPSVLNKDPDAEKPRFASNL | binds |
| hyperpolarization-activated cyclic nucleotide-gated channel 2 (protein, UniProt Q9JKA9 1-863) MDARGGGGRPGDSPGATPAPGPPPPPPPPAPPQPQPPPAPPPNPTTPSHPESADEPGPRSRLCSRDSSCTPGAAKGGANGECGRGEPQCSPEGPARGPKVSFSCRGAASGPAAAEEAGSEEAGPAGEPRGSQASFLQRQFGALLQPGVNKFSLRMFGSQKAVEREQERVKSAGAWIIHPYSDFRFYWDFTMLLFMVGNLIIIPVGITFFKDETTAPWIVFNVVSDTFFLMDLVLNFRTGIVIEDNTEIILDPEKIKKKYLRTWFVVDFVSSIPVDYIFLIVEKGIDSEVYKTARALRIVRFTKILSLLRLLRLSRLIRYIHQWEEIFHMTYDLASAVMRICNLISMMLLLCHWDGCLQFLVPMLQDFPSDCWVSINNMVNHSWSELYSFALFKAMSHMLCIGYGRQAPESMTDIWLTMLSMIVGATCYAMFIGHATALIQSLDSSRRQYQEKYKQVEQYMSFHKLPADFRQKIHDYYEHRYQGKMFDEDSILGELNGPLREEIVNFNCRKLVASMPLFANADPNFVTAMLTKLKFEVFQPGDYIIREGTIGKKMYFIQHGVVSVLTKGNKEMKLSDGSYFGEICLLTRGRRTASVRADTYCRLYSLSVDNFNEVLEEYPMMRRAFETVAIDRLDRIGKKNSILLHKVQHDLSSGVFNNQENAIIQEIVKYDREMVQQAELGQRVGLFPPPPPPQVTSAIATLQQAVAMSFCPQVARPLVGPLALGSPRLVRRAPPGPLPPAASPGPPAASPPAAPSSPRAPRTSPYGVPGSPATRVGPALPARRLSRASRPLSASQPSLPHGAPAPSPAASARPASSSTPRLGPAPTTRTAAPSPDRRDSASPGAASGLDPLDSARSRLSSNL | binds |
| hyperpolarization-activated cyclic nucleotide-gated channel 3 (protein, UniProt Q9JKA8 1-780) MEEEARPAVGDGEAATPARETPPAAPAQARAASGGVPESAPEPKRRQLGTLLQPTVNKFSLRVFGSHKAVEIEQERVKSAGAWIIHPYSDFRFYWDLIMLLLMVGNLIVLPVGITFFKEENSPPWIVFNVLSDTFFLLDLVLNFRTGIVVEEGAEILLAPRAIRTRYLRTWFLVDLISSIPVDYIFLVVELEPRLDAEVYKTARALRIVRFTKILSLLRLLRLSRLIRYMHQWEEIFHMTYDLASAVVRIFNLIGMMLLLCHWDGCLQFLVPMLQDFPSDCWVSMNRMVNHSWGRQYSHALFKAMSHMLCIGYGQQAPVGMPDVWLTMLSMIVGATCYAMFIGHATALIQSLDSSRRQYQEKYKQVEQYMSFHKLPADTRQRIHEYYEHRYQGKMFDEESILGELSEPLREEIINFTCRGLVAHMPLFAHADPSFVTAVLTKLRFEVFQPGDLVVREGSVGRKMYFIQHGLLSVLARGARDTRLTDGSYFGEICLLTRGRRTASVRADTYCRLYSLSVDHFNAVLEEFPMMRRAFETVAMDRLRRIGKKNSILQRKRSEPSPGSSSGGVMEQHLVQHDRDMARGIRGLAPGTGARLSGKPVLWEPLVHAPLQAAAVTSNVAIALTHQRGPLPLSPDSPATLLARSARRSAGSPASPLVPVRAGPLLARGPWASTSRLPAPPARTLHASLSRTGRSQVSLLGPPPGGGGRRLGPRGRPLSASQPSLPQRATGDGSPRRKGSGSERLPPSGLLAKPPGTVQPSRSSVPEPVTPRGPQISANM | binds |
| hyperpolarization-activated cyclic nucleotide-gated channel 4 (protein, UniProt Q9JKA7 1-1198) MDKLPPSMRKRLYSLPQQVGAKAWIMDEEEDGEEEGAGGLQDPSRRSIRLRPLPSPSPSVAAGCSESRGAALGAADSEGPGRSAGKSSTNGDCRRFRGSLASLGSRGGGSGGAGGGSSLGHLHDSAEERRLIAAEGDASPGEDRTPPGLATEPERPGAAAQPAASPPPQQPPQPASASCEQPSADTAIKVEGGAAASDQILPEAEVRLGQSGFMQRQFGAMLQPGVNKFSLRMFGSQKAVEREQERVKSAGFWIIHPYSDFRFYWDLTMLLLMVGNLIIIPVGITFFKDENTTPWIVFNVVSDTFFLIDLVLNFRTGIVVEDNTEIILDPQRIKMKYLKSWFVVDFISSIPVDYIFLIVETRIDSEVYKTARALRIVRFTKILSLLRLLRLSRLIRYIHQWEEIFHMTYDLASAVVRIVNLIGMMLLLCHWDGCLQFLVPMLQDFPHDCWVSINGMVNNSWGKQYSYALFKAMSHMLCIGYGRQAPVGMSDVWLTMLSMIVGATCYAMFIGHATALIQSLDSSRRQYQEKYKQVEQYMSFHKLPPDTRQRIHDYYEHRYQGKMFDEESILGELSEPLREEIINFNCRKLVASMPLFANADPNFVTSMLTKLRFEVFQPGDYIIREGTIGKKMYFIQHGVVSVLTKGNKETKLADGSYFGEICLLTRGRRTASVRADTYCRLYSLSVDNFNEVLEEYPMMRRAFETVALDRLDRIGKKNSILLHKVQHDLNSGVFNYQENEIIQQIVRHDREMAHCAHRVQAAASATPTPTPVIWTPLIQAPLQAAAATTSVAIALTHHPRLPAAIFRPPPGPGLGNLGAGQTPRHPRRLQSLIPSALGSASPASSPSQVDTPSSSSFHIQQLAGFSAPPGLSPLLPSSSSSPPPGACSSPPAPTPSTSTAATTTGFGHFHKALGGSLSSSDSPLLTPLQPGARSPQAAQPPPPLPGARGGLGLLEHFLPPPPSSRSPSSSPGQLGQPPGELSPGLAAGPPSTPETPPRPERPSFMAGASGGASPVAFTPRGGLSPPGHSPGPPRTFPSAPPRASGSHGSLLLPPASSPPPPQVPQRRGTPPLTPGRLTQDLKLISASQPALPQDGAQTLRRASPHSSGESMAAFSLYPRAGGGSGSSGGLGPPGRPYGAIPGQHVTLPRKTSSGSLPPPLSLFGARAASSGGPPLTAAPQREPGARSEPVRSKLPSNL | binds |
